Measured values as given in paper PMC10031136.
No constants are given. Whether binding was seen depends on the method and setting. Binding seen in cells or lysates may run through a third protein. Some entries that bind do so weakly or less than the wild type.

The chains behind the UniProt entries cited, without tags or fusion partners.
UniProt Q9QUR7: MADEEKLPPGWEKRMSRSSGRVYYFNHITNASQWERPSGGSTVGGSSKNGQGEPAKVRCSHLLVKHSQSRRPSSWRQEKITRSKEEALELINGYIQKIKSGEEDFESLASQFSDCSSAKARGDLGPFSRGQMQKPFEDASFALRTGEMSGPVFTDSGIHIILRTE
UniProt Q02111: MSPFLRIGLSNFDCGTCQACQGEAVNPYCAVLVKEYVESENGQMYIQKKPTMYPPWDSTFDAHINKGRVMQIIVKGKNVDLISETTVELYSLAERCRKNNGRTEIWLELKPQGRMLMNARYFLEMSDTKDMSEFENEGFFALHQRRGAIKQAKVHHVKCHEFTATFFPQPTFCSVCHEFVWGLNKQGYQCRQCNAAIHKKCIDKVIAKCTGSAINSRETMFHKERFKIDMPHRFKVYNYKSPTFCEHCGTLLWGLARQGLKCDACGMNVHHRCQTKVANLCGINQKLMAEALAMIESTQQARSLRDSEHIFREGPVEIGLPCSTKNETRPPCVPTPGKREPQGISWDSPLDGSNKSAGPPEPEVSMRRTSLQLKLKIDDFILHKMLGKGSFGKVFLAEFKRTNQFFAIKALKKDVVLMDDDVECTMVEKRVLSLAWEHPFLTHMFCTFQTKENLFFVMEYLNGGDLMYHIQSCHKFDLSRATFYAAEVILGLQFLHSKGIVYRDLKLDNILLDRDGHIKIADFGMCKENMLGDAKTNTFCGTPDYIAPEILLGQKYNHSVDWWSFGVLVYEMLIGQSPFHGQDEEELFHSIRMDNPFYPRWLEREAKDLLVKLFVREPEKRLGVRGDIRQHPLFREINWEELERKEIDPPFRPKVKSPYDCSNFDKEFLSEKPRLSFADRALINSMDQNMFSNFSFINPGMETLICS

Tests used:
[1] = molecular target: Pin1 (endogenous in C57BL/6J mouse T cells) (mouse (endogenous in C57BL/6J splenic and thymic T cells)) (UniProt Q9QUR7); experiment: co-IP; Pin1 immunoprecipitation from lysates of C57BL/6J splenic T cells activated with anti-CD3ε mAbs (2C11) for 0-5 min or 0-30 min; immunoblot for PKCθ
[2] = molecular target: Pin1 (endogenous in C57BL/6J mouse T cells) (mouse (endogenous in C57BL/6J splenic and thymic T cells)) (UniProt Q9QUR7); experiment: co-IP; Pin1 immunoprecipitation from lysates of C57BL/6J thymic T cells activated with anti-CD3ε mAb (2C11) for 0-30 min; immunoblot for PKCθ

Protein kinase C θ (endogenous in C57BL/6J mouse T cells) (from UniProt Q02111 1-707) (enzyme)
binding [1]: binds | binding [2]: binds
